For the experiment, the target named is Calcitonin receptor (human) (UniProt P30988). Put plainly: co-IP; multiplexed suspension bead array (SBA) immunoassay: clarified lysates (1% DM; 50 mM Hepes, 1 mM EDTA, 150 mM NaCl, 5 mM MgCl2, pH 7.4) of HEK293F cells cotransfected with tagged GPCR and RAMP, diluted to 50 ug/ml, incubated overnight at 4°C with bar-coded beads carrying anti-tag (HA, 1D4, FLAG, OLLAS), anti-GPCR or anti-RAMP Abs; the partner detected with a PE-conjugated anti-tag mAb; Luminex FlexMap 3D, MFI.

Sequences of proteins named here, by UniProt entry; tags and fusion partners are left off. A change or cut given only in a name is not applied to a line headed by its entry. Residues count along the entry.
UniProt P30988: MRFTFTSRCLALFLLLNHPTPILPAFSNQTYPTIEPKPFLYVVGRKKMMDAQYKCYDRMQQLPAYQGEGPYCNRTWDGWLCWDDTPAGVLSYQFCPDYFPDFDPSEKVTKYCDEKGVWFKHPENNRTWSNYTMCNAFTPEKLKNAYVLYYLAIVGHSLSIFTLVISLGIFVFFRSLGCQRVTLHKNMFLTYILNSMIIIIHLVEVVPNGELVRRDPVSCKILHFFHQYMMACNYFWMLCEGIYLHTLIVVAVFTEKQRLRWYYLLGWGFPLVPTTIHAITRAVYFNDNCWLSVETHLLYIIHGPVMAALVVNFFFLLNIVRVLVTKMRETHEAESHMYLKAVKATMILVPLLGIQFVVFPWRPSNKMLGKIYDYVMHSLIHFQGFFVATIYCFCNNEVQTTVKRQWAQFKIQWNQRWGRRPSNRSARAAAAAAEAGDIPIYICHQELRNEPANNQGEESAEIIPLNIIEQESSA
UniProt O60895, residues 43-175: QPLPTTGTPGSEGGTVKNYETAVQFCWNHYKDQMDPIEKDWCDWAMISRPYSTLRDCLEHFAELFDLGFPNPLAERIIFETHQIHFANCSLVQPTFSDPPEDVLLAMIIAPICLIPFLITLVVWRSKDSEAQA

Results are given in words; binding and its absence hold for the method and conditions named. Binding seen in cells or lysates may run through a third protein. Binding can be weak; no strength is given.

Take “Receptor activity-modifying protein 2 (from UniProt O60895 43-175)”: the binding entry was “binds”.

B1: Receptor activity-modifying protein 3 (protein, UniProt O60896 28-148)
chain: CNETGMLERLPLCGKAFADMMGKVDVWKWCNLSEFIVYYESFTNCTEMEANVVGCYWPNPLAQGFITGIHRQFFSNCTVDRVHLEDPPDEVLIPLIVIPVVLTVAMAGLVVWRSKRTDTLL
Regarding B1, the binding entry is on record as “binds”.

(Values after publication PMC6750928.)
